{"sequences": {"note": "Amino acid sequences for entries named in this document (tags omitted). Residues count along the entry.", "UniProt Q03431, residues 27-593": "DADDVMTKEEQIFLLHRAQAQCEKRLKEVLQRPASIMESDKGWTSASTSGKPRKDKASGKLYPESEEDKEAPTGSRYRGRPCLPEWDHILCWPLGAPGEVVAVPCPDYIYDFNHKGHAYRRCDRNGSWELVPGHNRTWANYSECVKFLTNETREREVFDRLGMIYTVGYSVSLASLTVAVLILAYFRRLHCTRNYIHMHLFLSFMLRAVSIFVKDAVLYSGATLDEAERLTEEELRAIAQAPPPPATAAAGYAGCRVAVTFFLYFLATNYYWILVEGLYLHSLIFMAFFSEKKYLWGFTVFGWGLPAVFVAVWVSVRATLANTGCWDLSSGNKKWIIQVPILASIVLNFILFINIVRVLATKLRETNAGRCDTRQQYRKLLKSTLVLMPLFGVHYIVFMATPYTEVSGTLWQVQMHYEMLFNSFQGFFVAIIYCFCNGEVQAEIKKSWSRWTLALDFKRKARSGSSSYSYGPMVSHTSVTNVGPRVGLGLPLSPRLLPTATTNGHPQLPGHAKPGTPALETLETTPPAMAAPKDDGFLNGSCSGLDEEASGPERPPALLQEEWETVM", "UniProt P32121": "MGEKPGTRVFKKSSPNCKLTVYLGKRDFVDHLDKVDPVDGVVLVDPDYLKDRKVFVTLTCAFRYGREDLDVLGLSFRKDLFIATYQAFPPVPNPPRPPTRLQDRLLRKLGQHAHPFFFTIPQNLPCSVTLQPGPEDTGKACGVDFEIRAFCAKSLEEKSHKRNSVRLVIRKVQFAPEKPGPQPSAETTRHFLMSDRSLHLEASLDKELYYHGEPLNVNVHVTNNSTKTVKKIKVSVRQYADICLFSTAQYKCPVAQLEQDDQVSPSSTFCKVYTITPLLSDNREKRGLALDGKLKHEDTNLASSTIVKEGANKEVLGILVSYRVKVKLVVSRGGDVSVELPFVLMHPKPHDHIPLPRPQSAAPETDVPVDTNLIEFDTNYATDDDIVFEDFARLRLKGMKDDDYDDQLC"}, "source": "paper PMC6783463", "key": {"[1]": {"target": "PTH1R expressed in PathHunter β-arrestin cells (UniProt Q03431)", "test": "condition: only without PTH (1–34), ECD-scFvhFc added alone; split reporter; PathHunter β-arrestin eXpress kit, enzyme fragment complementation (β-galactosidase) in cells; agonist mode: increasing concentrations of PTH (1–34) or ECD-scFvhFc, 90 min at 37 °C; luminescence"}, "[2]": {"target": "PTH1R expressed in PathHunter β-arrestin cells (UniProt Q03431)", "test": "split reporter; PathHunter β-arrestin eXpress kit, enzyme fragment complementation (β-galactosidase) in cells; agonist mode: increasing concentrations of PTH (1–34) or ECD-scFvhFc, 90 min at 37 °C; luminescence"}}, "note": "These are yes or no findings as the source states them, for the method shown. In cells and extracts the contact can be indirect. Some binding calls cover weakened binding; strength is not graded here.", "data": [{"substance": "β-arrestin 2 (from UniProt P32121 1-409)", "values": [{"measurement": "binding", "setting": "[1]", "result": "no binding"}, {"measurement": "binding", "setting": "[2]", "result": "binds"}]}]}
